PubChem BioAssay AID1259285 | Sanger Institute – 2017
Test: 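Search of the kinome for kinases worth combining with drugs in colon cancer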 (primary screen). Cell system: human HCC56 colorectal cancer cells. Reagents: siRNA pool against human genes. Treatment: DMSO vehicle, or anchor drug BYL719 at 1 µM, cetuximab at 5 µg/ml, or trametinib at 10 nM. Read-out: 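Replicate-averaged viability relative to non-targeting siRNA, expressed as a robust z-score from controls, plus a synergy score for each of three anchor drugs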. Scale: viability robust z-score, no drug: higher = more viable cells, weaker knock-down effect; viability vs non-targeting pool, no drug: higher = more viable cells; synergy score with BYL719: higher = stronger combined killing with BYL719. Active means: 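a knock-down counts as essential if its viability z-score without drug is under -3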. Calls: active = essential without drug; inactive = no change without drug.
The deposit covers 794 reagents; shown is a part drawn at random. 20 of all reagents (2.5%) were called active. 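Calls rest on the drug-free arm alone and ignore synergy scores; viability ratios seem to be capped at 1.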 Further read-outs or replicates are left out here. Not given: the amount of reagent, the time to read-out.

Target gene	PubChem SID	viability robust z-score, no drug	viability vs non-targeting pool, no drug	synergy score with BYL719	Call
ROS1 (ROS proto-oncogene 1, receptor tyrosine kinase)	SID56478551	0.458	1	-0.113	inactive
CDK9 (cyclin dependent kinase 9)	SID152156235	0.458	1	0.00304	inactive
HUNK (hormonally up-regulated Neu-associated kinase)	SID56478785	-2.51	0.745	0.0249	inactive
NEK7 (NIMA related kinase 7)	SID56478729	0.458	1	-0.162	inactive
GUCY2C (guanylate cyclase 2C)	SID152148747	0.458	1	-0.124	inactive
TRIO (trio Rho guanine nucleotide exchange factor)	SID56478974	0.458	1	-0.0034	inactive
ERN2 (endoplasmic reticulum to nucleus signaling 2)	SID135620900	0.458	1	-0.144	inactive
CERK (ceramide kinase)	SID152152071	0.458	1	-0.117	inactive
TTBK2 (tau tubulin kinase 2)	SID152155925	0.458	1	-0.117	inactive
NUP107 (nucleoporin 107)	SID152154550	-0.632	0.906	0.0148	inactive
PKMYT1 (protein kinase, membrane associated tyrosine/threonine 1)	SID56478956	0.458	1	-0.0941	inactive
EGFR (epidermal growth factor receptor)	SID135620613	-0.13	0.949	0.0332	inactive
ETNK2 (ethanolamine kinase 2)	SID56478982	-1.65	0.819	-0.0636	inactive
THNSL1 (threonine synthase like 1)	SID152147285	0.458	1	-0.162	inactive
GSK3B (glycogen synthase kinase 3 beta)	SID56478468	0.458	1	-0.162	inactive
ARID1A (AT-rich interaction domain 1A)	SID152147093	0.458	1	0.0836	inactive
CLK1 (CDC like kinase 1)	SID152154455	0.458	1	-0.162	inactive
CREBBP (CREB binding lysine acetyltransferase)	SID152156768	-2.28	0.765	-0.076	inactive
ERN1 (endoplasmic reticulum to nucleus signaling 1)	SID135620914	-2.27	0.766	0.054	inactive
MAST4	SID135625002	0.458	1	-0.162	inactive
PHKG1 (phosphorylase kinase catalytic subunit gamma 1)	SID152147540	0.458	1	0.0202	inactive
TESK1 (testis associated actin remodelling kinase 1)	SID152149255	0.458	1	-0.162	inactive
PRKAA1 (protein kinase AMP-activated catalytic subunit alpha 1)	SID152155693	0.458	1	-0.162	inactive
MAP3K13 (mitogen-activated protein kinase kinase kinase 13)	SID56478694	0.458	1	-0.0777	inactive
PI4KB (phosphatidylinositol 4-kinase beta)	SID135621252	0.458	1	-0.162	inactive
RTN4 (reticulon 4)	SID134315213	0.458	1	0.0474	inactive
PRKCA (protein kinase C alpha)	SID56478672	0.458	1	-0.0446	inactive
MAPK10 (mitogen-activated protein kinase 10)	SID56478791	0.458	1	-0.162	inactive
ERBB4 (erb-b2 receptor tyrosine kinase 4)	SID135620618	-0.944	0.88	0.0122	inactive
RIPK1 (receptor interacting serine/threonine kinase 1)	SID152148235	0.458	1	-0.0901	inactive
TAOK3 (TAO kinase 3)	SID152152167	0.458	1	-0.162	inactive
DGKB (diacylglycerol kinase beta)	SID56479090	0.0169	0.962	0.197	inactive
PHKB (phosphorylase kinase regulatory subunit beta)	SID134312707	0.458	1	-0.162	inactive
JAK2 (Janus kinase 2)	SID56478524	0.458	1	-0.0426	inactive

4 entries from above, reformatted.
{"Target gene": "MAST4", "PubChem SID": "SID135625002", "viability robust z-score, no drug": 0.458, "viability vs non-targeting pool, no drug": 1, "synergy score with BYL719": -0.162, "Call": "inactive"}
{"Target gene": "PHKG1 (phosphorylase kinase catalytic subunit gamma 1)", "PubChem SID": "SID152147540", "viability robust z-score, no drug": 0.458, "viability vs non-targeting pool, no drug": 1, "synergy score with BYL719": 0.0202, "Call": "inactive"}
{"Target gene": "TESK1 (testis associated actin remodelling kinase 1)", "PubChem SID": "SID152149255", "viability robust z-score, no drug": 0.458, "viability vs non-targeting pool, no drug": 1, "synergy score with BYL719": -0.162, "Call": "inactive"}
{"Target gene": "PRKAA1 (protein kinase AMP-activated catalytic subunit alpha 1)", "PubChem SID": "SID152155693", "viability robust z-score, no drug": 0.458, "viability vs non-targeting pool, no drug": 1, "synergy score with BYL719": -0.162, "Call": "inactive"}
